Assay [1] addresses SBP-ΔLNGFR expressed from pHRSIN-HA-SBP-ΔLNGFR (pilot construct with N-terminal HA tag) on 293T cells. The assay is described as follows: magnetic bead selection of transfected 293T cells, release with 2 mM biotin.
The target in assay [2] is codon-optimised SBP-ΔLNGFR fusion protein, as expressed at the cell surface after signal peptide cleavage. The assay is described as follows: magnetic bead selection of transduced primary human CD4+ T cells.
Assay [3] has the same target. The assay is described as follows: magnetic bead selection of 293T cells transfected with pSpCas9(BB)-P2A-SBP-ΔLNGFR.
The target is the same in assay [4]. The assay is described as follows: flow cytometry on transfected or transduced 293T cells. (A flow cytometer gives signals particle by particle.)
Assay [5] addresses SBP-ΔLNGFR expressed from pHRSIN-HA-SBP-ΔLNGFR (pilot construct with N-terminal HA tag) on 293T cells. The assay is described as follows: flow cytometry on transfected 293T cells.

These are yes or no findings as the source states them, for the method shown. Some results given as binding are weak or reduced against the parent protein; the word gives no strength.

“streptavidin-conjugated magnetic beads (from UniProt P22629 37-163)”: the binding entry in assay [1], in assay [2] and in assay [3] was “binds” each time.

Turning to “streptavidin-APC (eBioscience) (from UniProt P22629 37-163)”, the binding entry in assay [4] and in assay [5] was “binds” throughout.
